Measured values: PubChem BioAssay AID2685 (National Center for Advancing Translational Sciences (NCATS), 2010)
The list shows a part of the results. These are further read-outs of the screen, such as a control signal, another cell line or another target. No call is given for them. Most of these compounds were active or inconclusive in the main read-out, so they are no random draw. Potencies come from curve fits of mixed quality, noted in brackets.

Assay: qHTS Assay for Lipid Storage Modulators in Drosophila S3 Cells;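 for cell number change: cells counted by Cell Tracker Red CMTPX staining in the red channel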
Details: BODIPY lipid droplet fluorescence, 18-24 h; for cell number change: measured here: cell count max response, cells fed with added oleic acid
In short: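 Laser-scanning cytometry quantifies lipid droplet accumulation (500–530 nm total intensity; droplet/cell object ratio) in oleic acid-fed (400 uM added) Drosophila S3 cells treated with a concentration series. 20 uM Triacsin C defined 100% inhibition.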

[1] = measured here: cell number channel AC50, cells fed with added oleic acid
[2] = measured here: lipid fluorescence (Fed channel) AC50, cells fed with added oleic acid

SMILES	cell number change [%]	AC50 [1]	AC50 [2]
COc1ccccc1N1CCN(C(c2ccc(C)cc2)c2nnnn2C(C)C)CC1 (configuration not stated)	32.8	6.51 µM [rising, partial curve, poor fit]	
COc1cc(/C=N/Nc2nc3c(c(=O)n(C)c(=O)n3C)n2Cc2ccccc2)ccc1OC(=O)c1ccco1	-55.7	16.4 µM [falling, single point]	14.6 µM [falling, partial curve]
CCc1ccc(NC(=O)c2cc(-c3ccc4c(c3)OCO4)on2)cc1	36.2		1.16 µM [rising, single point]
CCOc1cc(C(=O)Nc2cnccn2)cc(OCC)c1OCC	13.1		
O=C(NCCc1ccccc1)c1ccccc1NC(=O)C1CC=CCC1C(=O)O (configuration not stated)	-33	13 µM [falling, partial curve, poor fit]	
Cc1cc(C)c(CN2CCC(n3nccc3NC(=O)CCOc3ccccc3)CC2)cc1C	-4.89		18.4 µM [falling, single point]
CCOC(=O)C1=C(C)N(c2ccc(C)cc2)C(=O)/C1=C\c1cccs1	-10.4		
O=C(C1CCCN(S(=O)(=O)c2cccc3nonc23)C1)N1CCN(c2cccc(Cl)c2)CC1 (configuration not stated)	10.7		
CC(NC(=O)c1ccc2ccccc2n1)c1ccc(S(N)(=O)=O)cc1 (configuration not stated)	20.5		29.1 µM [falling, single point]
O=C(CNS(=O)(=O)c1ccc(Br)s1)N1CCC(N2CCCCC2)CC1	21.7		2.06 µM [rising, full curve, poor fit]
CCCCN(C(=O)c1ccc2ccccc2c1)c1c(N)n(CCCC)c(=O)[nH]c1=O	-9.77		
Cc1cccc(CSCCNC(=O)c2ccc(N(C)S(=O)(=O)c3ccccc3)cc2)c1		1.84 µM [rising, single point]	
NC(=O)C1(N2CCCCC2)CCN(C(=S)NCCc2ccccc2)CC1		0.092 µM [falling, full curve, poor fit]	
Cc1ccc(S(=O)(=O)N(C)C)cc1NC(=O)C(C)N(C)Cc1sccc1C (configuration not stated)	-12.8		
CCNC(=O)Cn1c(=O)c2c(ncn2Cc2ccccc2)n(Cc2ccccc2)c1=O			2.31 µM [falling, partial curve, poor fit]
COC(=O)c1ccc2c(=O)n(CCCCCC(=O)NCc3ccccc3)c(=O)[nH]c2c1	14.5	1.16 µM [falling, full curve]	
C=CCn1c(COc2ccc(F)cc2)nnc1SCC(=O)Nc1cccc(S(N)(=O)=O)c1			1.03 µM [rising, partial curve]
O=C(/C=C/c1ccc(Cl)cc1)N1CCN(c2ccc([N+](=O)[O-])c(N3CCOCC3)c2)CC1	-18.9		16.4 µM [falling, single point]
O=C(c1ccco1)N1CCN(CC(O)COc2ccc(Br)cc2)CC1 (configuration not stated)	9.91	0.00411 µM [rising, full curve, poor fit]	

As entered above:
Value of Cc1ccc(S(=O)(=O)N(C)C)cc1NC(=O)C(C)N(C)Cc1sccc1C (configuration not stated) under cell number change [%]: -12.8
Value of NC(=O)C1(N2CCCCC2)CCN(C(=S)NCCc2ccccc2)CC1 under AC50 [1]: 0.092 µM [falling, full curve, poor fit]

More entries

SMILES	cell number change [%]	AC50 [1]	AC50 [2]
CNC(=O)[C@H]1O[C@@H](n2cnc3c(NCc4cccc(I)c4)ncnc32)[C@H](O)[C@@H]1O	25.6		13 µM [rising, partial curve]
COc1ccc(NC(=O)CSc2nc(=O)n(CCN3CCOCC3)c3c2CCC3)c(OC)c1	-44.9	29.1 µM [falling, single point]	1.64 µM [falling, partial curve, poor fit]
COc1cccc(CN(C)C(=O)c2ccc(OCC(=O)Nc3cccc(C(F)(F)F)c3)c(OC)c2)c1			3.26 µM [falling, full curve, poor fit]
C=CCn1nc2ccccc2c1OCCO	21.7		29.1 µM [rising, single point]
CC(=O)Nc1ccc(S(=O)(=O)NCCC(=O)OCc2ccc([N+](=O)[O-])cc2)cc1	-31.5		18.4 µM [falling, single point]
CCOc1ccsc1C(=O)NNC(=O)c1ccco1	15.8		29.1 µM [rising, partial curve, poor fit]
CCC(=O)Nc1ccc2c(c1)ncn2CCc1ccccc1	10.6		25.9 µM [rising, single point]
O=C(c1cc(-c2ccccn2)nc2c(Cl)cccc12)N1CCN(S(=O)(=O)c2ccccc2)CC1	17.5		32.6 µM [rising, single point]
Nc1ncnc2nc(SCCN3CCCCC3)[nH]c12		6.51 µM [falling, single point]	6.51 µM [falling, single point]
NC(CSS(=O)(=O)O)=NCCC12CC3CC(CC(O)(C3)C1)C2	-21		0.731 µM [falling, full curve]
CCc1ccccc1NS(=O)(=O)c1c(C(=O)N2CCCCCC2)c(C)n(C)c1C	11.3		14.6 µM [falling, partial curve, poor fit]
O=C(NCCCN1CCCC1=O)c1csc2ccccc12	4.74		
N#CCCCSc1ncccc1-c1nc2ccccc2[nH]1	7.89	0.0731 µM [rising, full curve, poor fit]	0.058 µM [rising, full curve, poor fit]
CCOC(=O)/C(C#N)=C/c1c(OCC)n(CC)c2ccccc12	6.09		0.731 µM [rising, full curve, poor fit]
CCC(C)Nc1nc(Cl)nc(NCCOc2ccccc2)n1 (configuration not stated)	10.2		0.366 µM [rising, partial curve, poor fit]
O=C(COC(=O)c1sc2cc(Cl)ccc2c1Cl)Nc1ncc(Cl)cc1Cl	35.7	6.51 µM [falling, single point]	6.51 µM [falling, single point]
CCOC(=O)C1=C(N)Oc2c(oc(CO)cc2=O)C1c1ccc(F)c(F)c1 (configuration not stated)	12.6		1.64 µM [falling, partial curve]
Cc1oc2c(C)c3oc(=O)c(CCC(=O)N4CCC(C(=O)NCCC(=O)O)(c5ccccc5)CC4)c(C)c3cc2c1C	2.97		0.82 µM [falling, single point]
